No constants are given. Whether binding was seen depends on the method and setting. In cells and extracts the contact can be indirect. Some entries that bind do so weakly or less than the wild type. For some of these results: Tags and fused reporters may be left off the sequences shown.

Sequences of proteins named here, by UniProt entry; tags and fusion partners are left off.
UniProt Q93008: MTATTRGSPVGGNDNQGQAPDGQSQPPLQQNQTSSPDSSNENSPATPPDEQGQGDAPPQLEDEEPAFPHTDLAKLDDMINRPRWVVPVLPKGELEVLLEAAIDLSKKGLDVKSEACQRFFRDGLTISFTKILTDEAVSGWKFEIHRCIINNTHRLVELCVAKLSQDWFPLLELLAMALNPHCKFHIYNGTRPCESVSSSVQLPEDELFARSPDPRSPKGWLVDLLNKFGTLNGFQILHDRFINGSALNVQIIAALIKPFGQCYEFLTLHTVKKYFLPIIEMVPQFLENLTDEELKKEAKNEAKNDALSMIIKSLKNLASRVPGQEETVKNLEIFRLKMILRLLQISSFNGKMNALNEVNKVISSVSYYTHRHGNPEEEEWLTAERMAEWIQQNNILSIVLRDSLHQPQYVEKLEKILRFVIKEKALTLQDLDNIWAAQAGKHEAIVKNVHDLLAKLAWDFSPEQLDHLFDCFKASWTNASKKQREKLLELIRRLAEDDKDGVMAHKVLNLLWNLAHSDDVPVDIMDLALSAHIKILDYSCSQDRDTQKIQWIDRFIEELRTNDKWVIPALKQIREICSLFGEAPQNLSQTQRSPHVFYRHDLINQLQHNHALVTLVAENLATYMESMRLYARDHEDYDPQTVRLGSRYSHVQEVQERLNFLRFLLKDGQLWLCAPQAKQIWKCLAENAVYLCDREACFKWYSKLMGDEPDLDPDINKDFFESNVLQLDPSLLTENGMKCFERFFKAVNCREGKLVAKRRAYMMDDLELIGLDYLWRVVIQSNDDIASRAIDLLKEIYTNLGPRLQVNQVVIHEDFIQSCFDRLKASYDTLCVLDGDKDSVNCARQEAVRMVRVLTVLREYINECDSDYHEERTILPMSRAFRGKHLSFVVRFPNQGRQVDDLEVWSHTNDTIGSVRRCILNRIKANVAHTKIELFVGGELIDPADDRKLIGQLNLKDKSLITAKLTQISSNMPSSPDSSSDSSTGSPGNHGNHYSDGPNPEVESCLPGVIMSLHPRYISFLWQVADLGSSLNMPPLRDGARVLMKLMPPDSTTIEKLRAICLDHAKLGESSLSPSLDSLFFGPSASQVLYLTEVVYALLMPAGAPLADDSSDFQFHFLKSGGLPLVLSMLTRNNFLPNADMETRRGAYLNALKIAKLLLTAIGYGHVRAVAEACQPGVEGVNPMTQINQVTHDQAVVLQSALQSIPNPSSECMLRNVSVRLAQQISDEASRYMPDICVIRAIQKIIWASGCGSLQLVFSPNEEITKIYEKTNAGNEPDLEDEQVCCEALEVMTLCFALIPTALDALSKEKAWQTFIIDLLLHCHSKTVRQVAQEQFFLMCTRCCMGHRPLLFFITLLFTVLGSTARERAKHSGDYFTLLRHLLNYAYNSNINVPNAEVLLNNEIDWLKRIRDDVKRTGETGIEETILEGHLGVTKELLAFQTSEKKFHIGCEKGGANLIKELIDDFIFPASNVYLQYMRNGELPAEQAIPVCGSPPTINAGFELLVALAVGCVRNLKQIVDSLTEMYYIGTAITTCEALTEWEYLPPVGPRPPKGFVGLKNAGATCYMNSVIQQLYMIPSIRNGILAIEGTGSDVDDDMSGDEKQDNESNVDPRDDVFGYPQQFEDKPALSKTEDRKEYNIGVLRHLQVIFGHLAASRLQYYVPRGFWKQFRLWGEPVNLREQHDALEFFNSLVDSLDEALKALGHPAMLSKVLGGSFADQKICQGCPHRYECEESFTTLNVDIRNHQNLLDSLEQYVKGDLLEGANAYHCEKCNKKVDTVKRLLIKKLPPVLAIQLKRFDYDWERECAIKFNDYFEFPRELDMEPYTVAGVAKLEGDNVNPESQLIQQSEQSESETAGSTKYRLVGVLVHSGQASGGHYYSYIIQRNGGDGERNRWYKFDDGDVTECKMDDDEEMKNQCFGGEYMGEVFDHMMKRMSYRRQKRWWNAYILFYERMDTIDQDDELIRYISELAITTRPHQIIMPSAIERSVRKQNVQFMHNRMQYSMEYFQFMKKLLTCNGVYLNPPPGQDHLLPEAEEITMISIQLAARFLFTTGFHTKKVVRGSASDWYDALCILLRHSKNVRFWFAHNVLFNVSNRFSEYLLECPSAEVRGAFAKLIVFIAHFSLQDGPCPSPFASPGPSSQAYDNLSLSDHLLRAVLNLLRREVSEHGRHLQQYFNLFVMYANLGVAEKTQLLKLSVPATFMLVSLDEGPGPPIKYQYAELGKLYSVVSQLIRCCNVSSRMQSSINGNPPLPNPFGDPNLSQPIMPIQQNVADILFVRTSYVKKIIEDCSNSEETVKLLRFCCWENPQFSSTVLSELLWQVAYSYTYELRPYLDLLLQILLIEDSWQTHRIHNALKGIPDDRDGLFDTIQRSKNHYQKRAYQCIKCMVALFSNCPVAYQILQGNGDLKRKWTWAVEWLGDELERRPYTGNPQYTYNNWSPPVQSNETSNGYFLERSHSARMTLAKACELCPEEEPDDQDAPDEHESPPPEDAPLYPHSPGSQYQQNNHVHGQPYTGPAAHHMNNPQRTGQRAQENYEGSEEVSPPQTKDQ
UniProt Q15154: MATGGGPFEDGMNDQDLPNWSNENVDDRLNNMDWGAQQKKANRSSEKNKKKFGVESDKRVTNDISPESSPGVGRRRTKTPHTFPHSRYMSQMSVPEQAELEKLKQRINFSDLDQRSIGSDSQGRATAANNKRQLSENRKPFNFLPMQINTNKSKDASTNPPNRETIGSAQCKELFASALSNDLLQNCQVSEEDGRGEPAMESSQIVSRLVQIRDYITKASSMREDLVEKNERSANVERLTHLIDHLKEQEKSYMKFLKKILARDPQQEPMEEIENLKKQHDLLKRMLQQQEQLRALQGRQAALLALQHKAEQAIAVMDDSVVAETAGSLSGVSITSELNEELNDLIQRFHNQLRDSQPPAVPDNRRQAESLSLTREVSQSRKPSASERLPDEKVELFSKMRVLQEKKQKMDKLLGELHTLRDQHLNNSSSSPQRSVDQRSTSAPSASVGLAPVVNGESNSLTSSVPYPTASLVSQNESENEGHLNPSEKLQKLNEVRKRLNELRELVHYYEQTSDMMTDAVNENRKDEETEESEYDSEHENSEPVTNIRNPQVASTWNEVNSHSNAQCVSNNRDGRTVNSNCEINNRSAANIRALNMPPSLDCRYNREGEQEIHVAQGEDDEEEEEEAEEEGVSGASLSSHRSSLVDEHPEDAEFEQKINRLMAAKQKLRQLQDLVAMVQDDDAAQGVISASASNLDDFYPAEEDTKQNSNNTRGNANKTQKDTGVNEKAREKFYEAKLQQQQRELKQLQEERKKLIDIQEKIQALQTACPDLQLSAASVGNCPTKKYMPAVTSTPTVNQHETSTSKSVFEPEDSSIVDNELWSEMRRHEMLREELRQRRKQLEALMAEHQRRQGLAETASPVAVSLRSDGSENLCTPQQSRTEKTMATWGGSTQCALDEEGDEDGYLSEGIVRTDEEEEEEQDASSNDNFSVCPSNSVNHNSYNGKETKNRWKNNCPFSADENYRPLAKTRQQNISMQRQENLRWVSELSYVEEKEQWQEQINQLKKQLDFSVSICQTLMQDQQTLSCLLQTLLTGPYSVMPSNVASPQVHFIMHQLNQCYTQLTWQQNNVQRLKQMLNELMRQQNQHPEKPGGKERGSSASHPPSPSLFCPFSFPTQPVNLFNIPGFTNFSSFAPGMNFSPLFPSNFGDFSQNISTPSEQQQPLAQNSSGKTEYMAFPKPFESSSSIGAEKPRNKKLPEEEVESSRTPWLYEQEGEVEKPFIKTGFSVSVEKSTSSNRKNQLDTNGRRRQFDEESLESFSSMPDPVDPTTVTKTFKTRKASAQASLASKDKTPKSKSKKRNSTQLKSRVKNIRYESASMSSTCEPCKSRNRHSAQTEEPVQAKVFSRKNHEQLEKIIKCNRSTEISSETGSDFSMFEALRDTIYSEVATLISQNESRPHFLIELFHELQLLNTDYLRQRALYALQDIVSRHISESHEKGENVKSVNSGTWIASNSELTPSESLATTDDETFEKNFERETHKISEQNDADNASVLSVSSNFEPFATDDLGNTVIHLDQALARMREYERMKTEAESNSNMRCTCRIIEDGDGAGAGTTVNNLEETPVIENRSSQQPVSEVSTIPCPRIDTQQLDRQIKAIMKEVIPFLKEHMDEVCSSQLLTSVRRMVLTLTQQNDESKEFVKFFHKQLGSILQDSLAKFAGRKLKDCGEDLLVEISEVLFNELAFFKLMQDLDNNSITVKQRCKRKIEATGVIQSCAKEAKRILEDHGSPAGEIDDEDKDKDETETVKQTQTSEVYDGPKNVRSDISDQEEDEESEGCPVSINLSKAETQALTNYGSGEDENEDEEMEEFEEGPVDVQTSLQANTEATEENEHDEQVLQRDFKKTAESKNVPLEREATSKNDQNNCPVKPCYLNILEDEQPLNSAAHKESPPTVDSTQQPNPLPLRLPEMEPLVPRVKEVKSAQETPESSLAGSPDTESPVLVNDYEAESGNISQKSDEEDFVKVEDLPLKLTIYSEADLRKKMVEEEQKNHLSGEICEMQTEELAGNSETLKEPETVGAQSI

The target in experiment [1] is T1, sorting nexin 17 (SNX17), human full-length, with GFP-Flag-tag (human) (UniProt Q15036).
T1 sequence: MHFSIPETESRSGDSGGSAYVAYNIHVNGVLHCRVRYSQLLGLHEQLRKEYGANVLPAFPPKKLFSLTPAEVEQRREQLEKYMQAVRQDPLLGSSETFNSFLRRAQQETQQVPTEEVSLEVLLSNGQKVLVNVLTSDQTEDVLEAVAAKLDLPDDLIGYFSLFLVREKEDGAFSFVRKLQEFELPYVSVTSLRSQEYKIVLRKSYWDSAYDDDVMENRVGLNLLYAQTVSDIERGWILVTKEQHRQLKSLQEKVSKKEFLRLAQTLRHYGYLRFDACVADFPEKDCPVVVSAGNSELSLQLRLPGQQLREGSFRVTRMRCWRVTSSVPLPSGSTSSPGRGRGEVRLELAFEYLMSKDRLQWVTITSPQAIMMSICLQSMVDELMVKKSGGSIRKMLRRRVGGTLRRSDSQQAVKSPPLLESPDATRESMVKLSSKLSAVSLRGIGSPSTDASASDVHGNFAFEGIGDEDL
Put plainly: co-IP; tagged SNX17 or its truncations precipitated from cell lysate in RIPA buffer (50 mM Tris-HCl pH7.4, 150 mM NaCl, 2 mM EDTA, 1% NP-40) on Flag beads overnight at 4 °C; blots for PCM1, USP9X and MIB1; cells in serum-containing or serum-free medium.

Experiment [2] deals with T2, human SNX17-PX+FERM (human) (UniProt Q15036).
T2 sequence: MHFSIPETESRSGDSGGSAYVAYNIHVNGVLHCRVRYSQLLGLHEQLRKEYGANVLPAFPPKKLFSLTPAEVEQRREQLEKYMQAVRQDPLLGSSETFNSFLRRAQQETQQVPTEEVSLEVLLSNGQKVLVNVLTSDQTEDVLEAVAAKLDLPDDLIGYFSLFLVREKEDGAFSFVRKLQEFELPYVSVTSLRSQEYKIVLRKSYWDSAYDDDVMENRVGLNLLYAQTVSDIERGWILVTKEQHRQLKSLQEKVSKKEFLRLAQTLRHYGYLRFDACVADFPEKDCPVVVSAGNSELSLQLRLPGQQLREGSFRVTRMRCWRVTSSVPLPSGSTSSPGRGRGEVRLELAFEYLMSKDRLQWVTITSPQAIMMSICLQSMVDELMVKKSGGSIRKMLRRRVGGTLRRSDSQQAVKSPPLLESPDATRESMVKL
Described as above.

Experiment [3] deals with T3, sorting nexin 17 (SNX17), construct not told (human) (UniProt Q15036).
T3 sequence: T1 sequence
Put plainly: co-IP; SNX17 pull-down of endogenous PCM1 at increasing amounts of ectopically expressed USP9X (Supplementary Figure S5).

Regarding “USP9X (ubiquitin-specific protease 9X) (from UniProt Q93008 1-2554) (enzyme)”, the binding entry in experiment [1] is “binds”.
Regarding “pericentriolar material 1 (PCM1) (from UniProt Q15154 1-2024)”, the binding entry in experiment [2], in experiment [1] and in experiment [3] was “binds” throughout.

The record behind these values is paper PMC6912348.
